Measurements as given in article PMC8677766.
These are yes or no findings as the source states them, for the method shown. Binding seen in cells or lysates may run through a third protein. Some entries that bind do so weakly or less than the wild type.

Protein sequences, listed by entry. Tags and fused reporters are not part of them.
UniProt Q16186: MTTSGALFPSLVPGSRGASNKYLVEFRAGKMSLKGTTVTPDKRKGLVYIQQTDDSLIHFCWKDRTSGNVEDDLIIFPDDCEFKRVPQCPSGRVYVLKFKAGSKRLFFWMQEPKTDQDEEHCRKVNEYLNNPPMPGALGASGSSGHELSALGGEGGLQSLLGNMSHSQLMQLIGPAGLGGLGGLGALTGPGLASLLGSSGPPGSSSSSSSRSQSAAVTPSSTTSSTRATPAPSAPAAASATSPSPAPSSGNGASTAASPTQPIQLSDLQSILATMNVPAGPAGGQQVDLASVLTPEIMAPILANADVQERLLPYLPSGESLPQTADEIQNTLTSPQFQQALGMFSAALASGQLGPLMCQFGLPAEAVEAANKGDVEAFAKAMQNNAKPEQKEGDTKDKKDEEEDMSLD

Target: hRpt3 (a proteasome ATPase subunit) (human (endogenous in RPMI 8226)) (UniProt P43686)
Assay: co-IP; RPMI 8226 WT cell lysate (1 mg) with anti-hRpt3 or rabbit IgG overnight at 4 °C, Dynabeads protein G; three washes with 1% Triton-TBS lysis buffer; immunoblot for hRpn13, hRpn2, hRpt3

hRpn13 full-length protein (from UniProt Q16186 1-407)
binding: binds
